From PubChem BioAssay AID504834 (National Center for Advancing Translational Sciences (NCATS), 2011)
The campaign covered roughly 320,000 compounds. About 22,000 (6.9%) were called active. The inconclusive results got no clear call from the source; some entries with a clear call stand among them for comparison. The call rests on the fitted dose curve; in most records, active means well fitted inhibition curve with a large enough effect; inconclusive means small, poorly fitted or top-dose-only effect, or another doubt; inactive means no such curve, though single readings can be large or run the other way. Where the call is inconclusive, the potency comes from a doubtful curve fit.

Experiment: Primary qHTS for delayed death inhibitors of the malarial parasite plastid, 96 hour incubation
Conditions: P. falciparum luciferase reporter growth; series mostly up to 28.7 µM
In short: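 Two parasite generations (96 h, 37 C, 5% CO2) of compound exposure in infected erythrocytes (0.05% parasitemia, 2% hematocrit). Luciferase-reporter P. falciparum; decreased luminescence indicates inhibited growth, aimed at apicoplast-acting delayed death.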
Potency means the concentration at half of the fitted maximal effect.

Compound | Potency
COc1ccc(CN(C(=O)c2ccco2)c2ccc(C)cc2)cc1OC | inconclusive: 18.5 µM [inhibitor, single point]
Cn1cc(C2CC(c3ccccc3)=NN2C(=O)c2ccccc2)c2ccccc21 (stereo not given) | active: 8.28 µM
COc1ccc(N(Cc2cc(=O)[nH]c3ccccc23)C(C)=O)cc1 | inactive
COc1ccc2nc(N3C(=O)C(O)=C(C(=O)c4ccco4)C3c3ccccc3OC)sc2c1 (stereo not given) | inconclusive: 18.5 µM [inhibitor, single point]
Cc1ccc(S(=O)(=O)N2CCOCC2)cc1NC(=O)COC(=O)C1COc2ccccc2O1 (stereo not given) | inactive
Cc1ccccc1Cn1c(O)c(N=NC(=S)Nc2ccccc2F)c2ccccc21 | inactive
COc1ccccc1-n1c(=O)c(C#N)c(-c2ccc([N+](=O)[O-])cc2)c2cc(C(=O)c3cc(F)ccc3O)cnc21 | inconclusive: 3.7 µM [inhibitor, single point]
COc1ccccc1C(=O)Nc1ccc(OC(C)C(=O)N2CCOCC2)cc1 (stereo not given) | inconclusive: 0.0131 µM [inhibitor, full curve, poor fit]
CC1C(=O)N2CCCc3cc(NS(C)(=O)=O)cc1c32 (stereo not given) | inactive
CN(CC(=O)N1CCN(c2ccccc2)CC1)S(=O)(=O)c1cnc[nH]1 | inactive
COc1ccc(/C=C/C(=O)OCC(=O)Nc2cccc(Oc3ccccc3)c2)c(OC)c1 | inconclusive: 10.4 µM [inhibitor, single point]
O=C(c1ccco1)N1CCN(C(=O)c2ccc(Cn3cc(Br)cn3)o2)CC1 | inconclusive: 1.04 µM [inhibitor, partial curve, poor fit]
CCCN1Cc2cccc(C(=O)NC3CCCC3)c2C1=O | inconclusive: 0.185 µM [inhibitor, full curve]
Fc1ccccc1/C=N/Nc1nc2ccccc2o1 | inconclusive: 11.7 µM [inhibitor, single point]
CCOCCCNC(=O)c1ccc(NC(=O)C2CCCO2)cc1 (stereo not given) | inconclusive: 10.4 µM [inhibitor, single point]
COc1ccc(Cl)cc1-c1n[nH]c(=S)n1C | inconclusive: 18.5 µM [inhibitor, single point]
O=C(N/N=C/c1ccccc1)c1sccc1OCc1ccc(F)cc1 | inconclusive: 1.17 µM [inhibitor, partial curve, poor fit]
CN(C)S(=O)(=O)Oc1ccc(C(=O)Nc2cccc(C(F)(F)F)c2)cc1 | active: 1.65 µM
Cc1ccc2c(c1)N(CCC(=O)NCc1cccs1)C(=O)C(C)O2 (stereo not given) | inconclusive: 10.4 µM [inhibitor, single point]
CCCCN(Cc1ccccc1)C(=O)C1CCN(Cc2sccc2C)CC1 | inconclusive: 18.5 µM [inhibitor, single point]
COc1ccc(N2C(=O)C3CCCN3C2c2ccc(C)cc2)cc1 (stereo not given) | inconclusive: 0.037 µM [inhibitor, full curve, poor fit]
O=C(Cn1nnc(-c2ccc(CN3CCOCC3)cc2)n1)N(c1ccccc1)c1ccccc1 | inconclusive: 2.08 µM [inhibitor, full curve]
Cc1cc(Cl)c(S(=O)(=O)NCCC(=O)O)cc1OCC(N)=O | inconclusive: 1.65 µM [inhibitor, partial curve, poor fit]

Compound | Potency
Cc1ccnc(NC(=O)COc2ccc3oc4c(c3c2)CCCC4)c1 | active: 11.7 µM
CCCCC1=CC2=C(c3ccco3)C(=O)C(C)(OC(=O)c3ccc(OC)cc3)C(=O)C2=CN1CC1CC1 (stereo not given) | inconclusive: 18.5 µM [inhibitor, single point]
CCOc1cc(CNCc2ccncc2)cc(Br)c1OCc1ccccc1F | inconclusive: 18.5 µM [inhibitor, partial curve, poor fit]
CNC(=O)c1csc(-c2ccncc2)n1 | inactive
Cc1ccc(C)c(NC(=O)C2CCCN(S(=O)(=O)c3c(C)noc3/C=C/N(C)C)C2)c1 (stereo not given) | inactive
CCN(CC)C(=O)c1c(Cl)nc(C)c([N+](=O)[O-])c1C | inconclusive: 10.4 µM [inhibitor, partial curve, poor fit]
CC1CCN(c2c(NCC3CCC(C(=O)NCCc4ccc(Cl)cc4)CC3)c(=O)c2=O)CC1 (stereo not given) | inconclusive: 2.33 µM [inhibitor, full curve]
O=C(OCC#CCSc1nnc(-c2cccc3ccccc23)o1)c1ccc2ccccc2c1 | inactive
Cc1ccc(N2CCN(C3=NC(=O)C(Cc4ccccc4)S3)CC2)cc1 (stereo not given) | inconclusive: 18.5 µM [inhibitor, single point]
Cc1cccc(NC(=O)c2ccccc2NC(=O)c2ccccc2)n1 | inactive
O=C(O)/C=C/C(=O)NNc1ncnc2ccccc12 | inactive
CC(=O)Nc1ccc(S(=O)(=O)N(Cc2cccnc2)Cc2cc3ccccc3[nH]c2=O)cc1 | inconclusive: 10.4 µM [inhibitor, single point]
Cc1cc(-c2csc(NC(=O)c3ccc(S(=O)(=O)N(C)C)cc3)n2)c(C)n1-c1ccccc1 | active: 10.4 µM
Cc1cccc(N2C(=O)CC(Sc3nccc(C)n3)C2=O)c1 (stereo not given) | inactive
CS(=O)(=O)c1ccc(Cl)c(NC(=O)COC(=O)/C=C/c2cnc3ccccc3n2)c1 | inactive
Cc1ccccc1CSc1nnc(-c2ccccn2)n1C | inactive
CC(Oc1ccc(Br)cc1)c1nc2c3ccccc3nc(=S)n2[nH]1 (stereo not given) | inconclusive: 0.329 µM [inhibitor, full curve, poor fit]
CCCCNC(=O)CN(c1cccc(Br)c1)S(C)(=O)=O | inactive
CNC(=O)Oc1ccccc1C(=O)Nc1ccccc1 | inconclusive: 19 µM [inhibitor, single point]
CCC(C)c1ccccc1OCCn1ccnc1 (stereo not given) | inactive
CC1Sc2ccc(S(=O)(=O)N3CCN(c4ccccc4)CC3)cc2NC1=O (stereo not given) | inconclusive: 0.738 µM [inhibitor, full curve, poor fit]
CC(C)C[C@@]12C(=O)N(c3cccc(Cl)c3)C(=O)N1[C@H](c1ccc(F)cc1)[C@@H]1C(=O)N(C3CCCCC3)C(=O)[C@@H]12 | inconclusive: 2.62 µM [inhibitor, full curve]

Sorted by formula weight (rising): part of the list above.
Compound | Potency
O=C(O)/C=C/C(=O)NNc1ncnc2ccccc12 | inactive
COc1ccc(N(Cc2cc(=O)[nH]c3ccccc23)C(C)=O)cc1 | inactive
Cc1cccc(NC(=O)c2ccccc2NC(=O)c2ccccc2)n1 | inactive
CN(CC(=O)N1CCN(c2ccccc2)CC1)S(=O)(=O)c1cnc[nH]1 | inactive
Cn1cc(C2CC(c3ccccc3)=NN2C(=O)c2ccccc2)c2ccccc21 (stereo not given) | active: 8.28 µM
CCCCN(Cc1ccccc1)C(=O)C1CCN(Cc2sccc2C)CC1 | inconclusive: 18.5 µM [inhibitor, single point]
CN(C)S(=O)(=O)Oc1ccc(C(=O)Nc2cccc(C(F)(F)F)c2)cc1 | active: 1.65 µM
CC1CCN(c2c(NCC3CCC(C(=O)NCCc4ccc(Cl)cc4)CC3)c(=O)c2=O)CC1 (stereo not given) | inconclusive: 2.33 µM [inhibitor, full curve]
CC(C)C[C@@]12C(=O)N(c3cccc(Cl)c3)C(=O)N1[C@H](c1ccc(F)cc1)[C@@H]1C(=O)N(C3CCCCC3)C(=O)[C@@H]12 | inconclusive: 2.62 µM [inhibitor, full curve]
